# Data published in PMC7819943, “Rice protein-binding microarrays: a tool to detect cis-acting elements near promoter regions in rice”.
# The chains behind the UniProt entries cited, without tags or fusion partners.
# UniProt Q0JBA9, entry or part of it: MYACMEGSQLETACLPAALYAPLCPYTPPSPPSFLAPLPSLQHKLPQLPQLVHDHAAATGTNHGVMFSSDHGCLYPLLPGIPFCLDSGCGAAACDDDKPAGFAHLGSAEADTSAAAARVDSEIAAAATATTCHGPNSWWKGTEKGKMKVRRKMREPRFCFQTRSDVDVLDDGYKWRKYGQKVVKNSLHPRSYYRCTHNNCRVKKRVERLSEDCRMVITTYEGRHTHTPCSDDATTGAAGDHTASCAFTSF
# The list shows a part of the results.
# Target: OsWRKY34 (Oryza sativa, UniProt Q0JBA9 1-250)
# Experiment: protein-binding microarray (RPBM); PBS, 2% BSA, 51.3 ng/ul salmon testes DNA, 50 uM zinc acetate, 200 nM TF, 25 C, 1 h; high values mean tight binding
# Details: protein: recombinant; tags: N-terminal polyhistidine and DsRed monomer fusion (pET32a); label: CyDye5-dUTP incorporated in the synthesized complementary strand; 3' TTTTT single-stranded linker to array surface; dsDNA, one strand shown
# In short: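 A custom Agilent array was converted to double-stranded form by primer extension with Cy5-dUTP and blocked with 2% BSA. Protein at 200 nM in PBS with 2% BSA, salmon testes DNA and 50 µM zinc acetate was applied for 1 h at 25 °C, followed by washing. The proteins were polyhistidine–DsRed N-terminal fusions of transcription factors, expressed in E. coli BL21-CodonPlus and Ni–NTA-purified. The binding signal is per-feature fluorescence intensity (arbitrary units) from an Axon 4000B scanner.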
row,Sequence,binding signal
1,ACCCGCCATCAATTCACTCTCTCACTCGTCACTCTCCTATCGGAGTCACCTAGTGCAG,13200 fluorescence intensity (a.u.)
2,TCTCTCTCTGTGCATGGTGGGGAGGTGCGGCAGTGGTGGTCGGAGTCACCTAGTGCAG,10400 fluorescence intensity (a.u.)
3,ACTGCTAATTCGTCTATTTTGTACCACTTTCTCTATTTTTCGGAGTCACCTAGTGCAG,16500 fluorescence intensity (a.u.)
4,AAAAAAGAATTTGGTGGGTGAGAGTTGACTGTGAGCTTCTCGGAGTCACCTAGTGCAG,8460 fluorescence intensity (a.u.)
5,ACACAAGAGTAAGCACATTATTACATGCCCTTTAATTTCTCGGAGTCACCTAGTGCAG,9430 fluorescence intensity (a.u.)
6,CAGGCGGAATCTGTAATTTGTTTGTGTTATTAGTCTATGTCGGAGTCACCTAGTGCAG,10800 fluorescence intensity (a.u.)
7,TCCATCAGTATCACGCGTTCGTCCTACGATTTCGTCATGACGGAGTCACCTAGTGCAG,10200 fluorescence intensity (a.u.)
8,CCTCCTCTCGTCGCTTCCGCCTTGGCTCGTCTTGTGCCTACGGAGTCACCTAGTGCAG,8570 fluorescence intensity (a.u.)
9,CCGCTCGTCTTCCACTGCAGCCCAGCTCCCGTTCTTTCAACGGAGTCACCTAGTGCAG,16500 fluorescence intensity (a.u.)
10,AGGATTTTGAGTTTTTGTTTGCATTTTTTGACCACTCGTCCGGAGTCACCTAGTGCAG,9820 fluorescence intensity (a.u.)
11,AAAACCATCCTAATCCCTGGCATTTGACACAGCCAAACAGCGGAGTCACCTAGTGCAG,8930 fluorescence intensity (a.u.)
12,AGCCTGAACGTATGGTAGAGGTGACACGACACGATCAACACGGAGTCACCTAGTGCAG,8270 fluorescence intensity (a.u.)
13,GTGGTACTTTCCCAATTGTTCTGCTATCCCTGTTTTATGGCGGAGTCACCTAGTGCAG,9400 fluorescence intensity (a.u.)
14,TCGGCTTCACTTGGAACAAATCGTCATCATCCTCGCCGCCCGGAGTCACCTAGTGCAG,8370 fluorescence intensity (a.u.)
15,GGGCAGCACACATTGATCATACCACACACTGTTCCCTGCACGGAGTCACCTAGTGCAG,12200 fluorescence intensity (a.u.)
16,AACTTTTACTACCTTTTAGTACTATATCATTAGTTTTCTTCGGAGTCACCTAGTGCAG,11300 fluorescence intensity (a.u.)
17,TCCTTGGGCGCCATAATGATCTGTTAACCACACCTTTTCTCGGAGTCACCTAGTGCAG,8480 fluorescence intensity (a.u.)
18,GTGGTTGGTTTCTTGTTTAGCTGGATTTGGTGCAAAAGCGCGGAGTCACCTAGTGCAG,12700 fluorescence intensity (a.u.)
19,CGTATCTCAATGACATATAAGACCCACATGAGTCAATAACCGGAGTCACCTAGTGCAG,8590 fluorescence intensity (a.u.)
20,GGCGGTTGTGGAGGCGCTGGGGCCGGTGGTCGGGGCGGCACGGAGTCACCTAGTGCAG,11400 fluorescence intensity (a.u.)
21,TCGGTCAACTCACAAATTTGGTCTCTCTTGACATTTCCTTCGGAGTCACCTAGTGCAG,11800 fluorescence intensity (a.u.)

# Individual results from the results shown.
# CCTCCTCTCGTCGCTTCCGCCTTGGCTCGTCTTGTGCCTACGGAGTCACCTAGTGCAG | binding signal: 8570 fluorescence intensity (a.u.)
# TCTCTCTCTGTGCATGGTGGGGAGGTGCGGCAGTGGTGGTCGGAGTCACCTAGTGCAG | binding signal: 10400 fluorescence intensity (a.u.)

# At a glance, part of the list above.
row,Sequence,binding signal
1,ACCCGCCATCAATTCACTCTCTCACTCGTCACTCTCCTATCGGAGTCACCTAGTGCAG,13200 fluorescence intensity (a.u.)
2,TCTCTCTCTGTGCATGGTGGGGAGGTGCGGCAGTGGTGGTCGGAGTCACCTAGTGCAG,10400 fluorescence intensity (a.u.)

# Remaining list, next part.

row,Sequence,binding signal
1,TCTCAGCATACCCCTTTTCACCTTTTTGCCATAATTAAAACGGAGTCACCTAGTGCAG,9410 fluorescence intensity (a.u.)
2,TCCCACGCGCCTTTTCTTCCCACGTGCATCTGTCAGTGACCGGAGTCACCTAGTGCAG,9480 fluorescence intensity (a.u.)
3,AGGGTTTGTTTGTTTATTTGTTTGTTTGATCGGTGTGGGGCGGAGTCACCTAGTGCAG,13300 fluorescence intensity (a.u.)
4,TTTTATTATGTCGATTTTTTTTCCTTACGATCCTCTTTATCGGAGTCACCTAGTGCAG,9760 fluorescence intensity (a.u.)
5,ATCTTTTATTTTTTACTGAAGTTTCTGTTTTGTTTTCAGTCGGAGTCACCTAGTGCAG,13200 fluorescence intensity (a.u.)
6,CGGATGGCTGTCCTGCTCTTGCGCTCATGCATGTCATCTCCGGAGTCACCTAGTGCAG,10600 fluorescence intensity (a.u.)
7,CGATTGCCTCAACCACCCGGTCACTGTGCAGGCGACCTGTCGGAGTCACCTAGTGCAG,9060 fluorescence intensity (a.u.)
8,ACCGTTCACTTTTTCCACCTACCTCCACTTCTCAACCAATCGGAGTCACCTAGTGCAG,13500 fluorescence intensity (a.u.)
9,ATCCTGGTCATCCAAAAGCCCAAACAACACTTCTACTTATCGGAGTCACCTAGTGCAG,8380 fluorescence intensity (a.u.)
10,TATTTATACAGCGCCGTATCCTTCAGTCTGCACACAAGGACGGAGTCACCTAGTGCAG,9820 fluorescence intensity (a.u.)
11,TGGTGGTTTCGAGATTTCTCATTGTCTGTTATCTGAAACCCGGAGTCACCTAGTGCAG,8840 fluorescence intensity (a.u.)
12,TTCGTCTTCCTCTAGCCTCACTCAGCATCTCCGTTGCACCCGGAGTCACCTAGTGCAG,9960 fluorescence intensity (a.u.)
13,TGGCTGCACCTTCGTCTCCATCGATCGATCGATCCACCATCGGAGTCACCTAGTGCAG,8030 fluorescence intensity (a.u.)
14,GCTATTGACTGTATCTAGTACTATTTCAAATTGTCAACGACGGAGTCACCTAGTGCAG,9420 fluorescence intensity (a.u.)
15,ACTTGTATGATCAATTTTGTTCTTTTGTAGGATCAATGTTCGGAGTCACCTAGTGCAG,8580 fluorescence intensity (a.u.)
16,ATGAACTTACCTTGCTGATTTTAGACATTTTGTGATTTAACGGAGTCACCTAGTGCAG,8360 fluorescence intensity (a.u.)
17,GGACTTGACTGTTTCAGATATAAGCACTCACTCTTGTTTTCGGAGTCACCTAGTGCAG,9490 fluorescence intensity (a.u.)
18,TCCCACTCCCACTGGCCTACCGTTTCCAATCATCCACGCCCGGAGTCACCTAGTGCAG,8480 fluorescence intensity (a.u.)
19,TGATTGGATTTATAGGTGAATTACAGGTGTTGTCATTTTACGGAGTCACCTAGTGCAG,8310 fluorescence intensity (a.u.)
20,CTCCGTTTTAGGTTATAAGATATTTTTGACTTTGGTCAAACGGAGTCACCTAGTGCAG,8470 fluorescence intensity (a.u.)
21,TTCATGATCATGCTTTGCCTTGACCAGCAAACTCTCAGCTCGGAGTCACCTAGTGCAG,9240 fluorescence intensity (a.u.)

row,Sequence,binding signal
1,CTGTCCCTCTGAATATTTGTTTTGGTTGTTCCTTGCTGTACGGAGTCACCTAGTGCAG,11500 fluorescence intensity (a.u.)
2,ATCTACTTATGTCACCCACTCTTAGCCAATATCATTCGCTCGGAGTCACCTAGTGCAG,8030 fluorescence intensity (a.u.)
3,TCATGGGTGGGGCAAGCTCTTCTATTCTGGTTCATGGTTTCGGAGTCACCTAGTGCAG,15700 fluorescence intensity (a.u.)
4,GTTTCGGTTTGAATGAGTTTTGATTTTGATATTGGAAACTCGGAGTCACCTAGTGCAG,8220 fluorescence intensity (a.u.)
5,GACATGATACCATTCTCGACCGTTTTCATCTCGTAGTTGCCGGAGTCACCTAGTGCAG,11000 fluorescence intensity (a.u.)
6,ACCTCCCTTGCTCTCTTCTTGATTCATCTTGCCCTCAAAGCGGAGTCACCTAGTGCAG,8870 fluorescence intensity (a.u.)
7,GTACTGTAGCTCTCTGACTTTACACATGTAAATCCTCTGACGGAGTCACCTAGTGCAG,8040 fluorescence intensity (a.u.)
8,AATCCATCCGCTTTTGCCATACATCCTTCGTCCAAGATGCCGGAGTCACCTAGTGCAG,9430 fluorescence intensity (a.u.)
9,CTTCCCTTGAGGCTACACGTCTACATTGGCACTCGTTTTCCGGAGTCACCTAGTGCAG,8060 fluorescence intensity (a.u.)
10,GGTGGTTGGTCTTGTCATTGCTCGTGCATGTCAGCACAGTCGGAGTCACCTAGTGCAG,11100 fluorescence intensity (a.u.)
11,TTAGATGTGGCCAGTTTTGATTTCTAGCTTATAGGATCGTCGGAGTCACCTAGTGCAG,9000 fluorescence intensity (a.u.)
12,GGGGTGATTAGGCTTCTACTGCAATTCAGTACAAGTAAATCGGAGTCACCTAGTGCAG,8310 fluorescence intensity (a.u.)
13,AAATGTTGCAGTGATTTTTTTTGGTATTCTTTTTGCCGAACGGAGTCACCTAGTGCAG,8260 fluorescence intensity (a.u.)
14,CTCCCTTGATATCTAGCTCATGATTGAATCGTCTTCCTCACGGAGTCACCTAGTGCAG,9370 fluorescence intensity (a.u.)
15,ACATTTTATCTTTTGACCTCGTCCCCATTAGAGCCGGCGTCGGAGTCACCTAGTGCAG,8160 fluorescence intensity (a.u.)
16,ATGGTATATTTCTGCACAGGTTTTTTCATCCCGAATATTTCGGAGTCACCTAGTGCAG,13600 fluorescence intensity (a.u.)
17,TTGTTTCTATAAGTTTAGGGTACACATTTCTGGTTTTTGTCGGAGTCACCTAGTGCAG,9140 fluorescence intensity (a.u.)
18,ACATATGTACGGTCTTTTCTTGTGTAGTGCAATCTTATCTCGGAGTCACCTAGTGCAG,9210 fluorescence intensity (a.u.)
19,GACCGCTTTGACCTCCGTAACCACAGCCGCTCGATAAAATCGGAGTCACCTAGTGCAG,9380 fluorescence intensity (a.u.)
20,TATCTGACTTGCTTCGATTCATTGATCGTGTATAGAGTACCGGAGTCACCTAGTGCAG,8050 fluorescence intensity (a.u.)
21,CGATCCGATTCCGCGGCGCACTGTCAATCCCATTCCCATTCGGAGTCACCTAGTGCAG,9460 fluorescence intensity (a.u.)

row,Sequence,binding signal
1,ATCTCTTACTACTCGTTTCACTACTAGTATTTGTCAGTTTCGGAGTCACCTAGTGCAG,9870 fluorescence intensity (a.u.)
2,CGCCGCCTCCTCGTCCGCCTCCGCGCGCGCGTAACCCGGCCGGAGTCACCTAGTGCAG,12400 fluorescence intensity (a.u.)
3,GCCACTTCTACACACACAGCTAGCACCAACAACCCTATATCGGAGTCACCTAGTGCAG,9480 fluorescence intensity (a.u.)
4,TCGATTCCGGCGTGCGAATTCCTCCACCTCGCCGCCGCCGCGGAGTCACCTAGTGCAG,8810 fluorescence intensity (a.u.)
5,CTCTTGCTCTGCAGGTTGGGTTTCTTTCCTTCCTCAATTTCGGAGTCACCTAGTGCAG,8290 fluorescence intensity (a.u.)
6,GATCCATTCGATCGACGACCAACCACCTCTCCATAATATACGGAGTCACCTAGTGCAG,10200 fluorescence intensity (a.u.)
7,CGCATTGTTTTCTCCTCGATAGTATATCTCCTTCTTCTGTCGGAGTCACCTAGTGCAG,9120 fluorescence intensity (a.u.)
8,CTCGCATCACGGTGATTTTCTTACCTACGTTTCGAACCACCGGAGTCACCTAGTGCAG,10400 fluorescence intensity (a.u.)
9,CCCTCTCTCTCCGTCTCTCTCCCTCCCAAACCCTCGCGCGCGGAGTCACCTAGTGCAG,8410 fluorescence intensity (a.u.)
10,ACGAAGCCCAATAATAGCCCATGTGATCCTACCCTCGCGGCGGAGTCACCTAGTGCAG,8100 fluorescence intensity (a.u.)
11,TCCATGGATATTTTGTCTCTTCTGCTTGATCACTAGGCCCCGGAGTCACCTAGTGCAG,10100 fluorescence intensity (a.u.)
12,AATTAGTCCATTAGTGTCATCAGCATGCTTAACAAGAACTCGGAGTCACCTAGTGCAG,8420 fluorescence intensity (a.u.)
13,ATAAGCCAAACAAGCCTTTTATCCGAATCTTTTGTTTGTACGGAGTCACCTAGTGCAG,8070 fluorescence intensity (a.u.)
14,CTCCTCTCTGACTCTTCTCCTTCACCTCCATCTTCTTCTTCGGAGTCACCTAGTGCAG,11000 fluorescence intensity (a.u.)
15,GGCGCCATTCCCCGAATGATTATTAGCTACTCCACAGCGTCGGAGTCACCTAGTGCAG,8540 fluorescence intensity (a.u.)
16,TAGTAAAGTGACCTACATTGTTTTTATCAGTTAAATTTATCGGAGTCACCTAGTGCAG,8280 fluorescence intensity (a.u.)
17,TTTATTCATGCTTGTTGTGCCTGAATGATTTGCATACTTCCGGAGTCACCTAGTGCAG,9120 fluorescence intensity (a.u.)
18,TATAAGTTATTTTGACTTTCTTTTTTGCTAGTTAAATTTTCGGAGTCACCTAGTGCAG,8680 fluorescence intensity (a.u.)
19,TGATCCAAGTTTTGGCCTTGTTTAGTTTTAAACTTTTTCTCGGAGTCACCTAGTGCAG,8680 fluorescence intensity (a.u.)
20,AATCCTGCATATTGACATTTTTATTCTGCATGTTGATCTCCGGAGTCACCTAGTGCAG,9260 fluorescence intensity (a.u.)
21,CCAATCGGTCTCCTTATCCCCATTTTTCTCTCTGTGCTGTCGGAGTCACCTAGTGCAG,9460 fluorescence intensity (a.u.)
